A negative result means that nothing was seen under these conditions. Protein sequences can lack the tags named with them. For some assays here: For at least one entry, the source does not settle the construct or the ends of the probe.
Experiments:
[1] = target: T1, ORF1p WT (111p) (UniProt Q9UN81); test: confocal fluorescence with optical tweezers; settings: 1 nM ORF1p fully compacted on 8.1 knt ssDNA, no ternary complex (not a test of free dT20 binding); 21 C (stated for m128p); 8.1 knt ssDNA held at 5-50 pN; recombinant protein; protein details: N-terminal His; label: 5' Alexa488; single-stranded DNA
T1 sequence (looked up, limits assumed): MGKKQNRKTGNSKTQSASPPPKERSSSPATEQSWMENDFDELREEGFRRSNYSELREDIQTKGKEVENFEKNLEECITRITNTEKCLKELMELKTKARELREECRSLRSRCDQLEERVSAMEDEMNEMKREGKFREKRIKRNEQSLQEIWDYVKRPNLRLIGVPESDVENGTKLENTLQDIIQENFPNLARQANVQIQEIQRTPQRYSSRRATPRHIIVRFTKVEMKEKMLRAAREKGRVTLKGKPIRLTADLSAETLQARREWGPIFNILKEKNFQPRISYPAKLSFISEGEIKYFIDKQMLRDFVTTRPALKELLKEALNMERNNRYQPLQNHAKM

[2] = target: T2, m128p (CTD, RRM, 3.5 of 14 CC heptads) (UniProt Q9UN81); test: confocal fluorescence with optical tweezers; settings: 30 nM m128p with tethered 8.1 knt ssDNA, no ternary complex (not a test of free dT20 binding); 21 C (stated for m128p); 8.1 knt ssDNA held at 5-50 pN; recombinant protein; residues 128-338; protein details: N-terminal His; label: 5' Alexa488; single-stranded DNA
T2 sequence (looked up): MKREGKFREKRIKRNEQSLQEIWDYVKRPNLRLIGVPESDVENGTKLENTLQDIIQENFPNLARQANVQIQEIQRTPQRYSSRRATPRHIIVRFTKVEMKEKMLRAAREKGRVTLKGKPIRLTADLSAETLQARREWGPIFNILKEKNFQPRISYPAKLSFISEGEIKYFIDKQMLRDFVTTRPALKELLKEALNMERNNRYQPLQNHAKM

Which results are given for TTTTTTTTTTTTTTTTTTTT [Alexa488-dT20]?
binding result [1]: no binding; binding result [2]: no binding
